Source: patent publication US20100113421A1, “NON-NUCLEOSIDE REVERSE TRANSCRIPTASE INHIBITORS” (priority 2006, published 2010)
Read-outs that look alike come from different tables or passages of the source. Some results were stated once for a whole list of compounds, not compound by compound.

How the values were obtained:
[1] = target: T1, HIV reverse transcriptase with Y181C mutation (Human immunodeficiency virus type 1 group M subtype B, UniProt P04585, Y768C); assay: ECL assay, mutant reverse transcriptase Y181C; assay type: biochemical
T1 construct: against mutant HIV reverse transcriptase; made in house

HIV-1 RT enzyme = HIV-1 RT enzyme (Human immunodeficiency virus type 1 group M subtype B, UniProt P04585); assay: ECL assay for inhibition of HIV reverse transcriptase (wild type); assay type: biochemical
[2] = Y181C mutant RT, read-out: IC50 in the Y181C assay
[3] = read-out: IC50 in the Y181C assay, Y181C mutant RT

COc1ccc2c(c1)CN(C(=O)c1[nH]c(C(N)=O)c(S(=O)(=O)c3cccc(F)c3)c1C)CCC2 [Example 93, 3-[(3-fluorophenyl)sulfonyl]-4-methyl-5-(8-methoxy-1,3,4,5-tetrahydro-2H-2-benzazepin-2-ylcarbonyl)-1H-pyrrole-2-carboxamide]
IC50 [1, 2]: < 8 µM | IC50 (HIV-1 RT enzyme; read-out: IC50): < 5 µM

Cc1c(C(=O)N(C)Cc2ccc3ncccc3c2Cl)[nH]c(C(N)=O)c1S(=O)(=O)c1cc(F)cc(Cl)c1 [Example 52, 4-[(3-chloro-5-fluorophenyl)sulfonyl]-N-[(5-chloro-6-quinolinyl)methyl]-N,3-dimethyl-1H-pyrrole-2,5-dicarboxamide]
IC50 [1, 2]: < 8 µM | IC50 (HIV-1 RT enzyme; read-out: IC50): < 5 µM

CCCCc1c(C(=O)N(C)Cc2ccc3ncccc3c2)[nH]c(C(N)=O)c1S(=O)(=O)c1cc(Cl)cc(Cl)c1 [Example 70, 3-butyl-4-[(3,5-dichlorophenyl)sulfonyl]-N-methyl-N-(6-quinolinylmethyl)-1H-pyrrole-2,5-dicarboxamide]
IC50 [1, 2]: < 8 µM | IC50 (HIV-1 RT enzyme; read-out: IC50): < 5 µM

Cc1c(C(=O)N2CCCc3ccccc3C2)[nH]c(C(N)=O)c1S(=O)(=O)c1cc(Cl)cc(Cl)c1 [Example 83, 3-[(3,5-dichlorophenyl)sulfonyl]-4-methyl-5-(1,3,4,5-tetrahydro-2H-2-benzazepin-2-ylcarbonyl)-1H-pyrrole-2-carboxamide]
IC50 [1, 2]: < 8 µM | IC50 (HIV-1 RT enzyme; read-out: IC50): < 5 µM

Cc1c(C(=O)N(C)Cc2ccc(Cl)cc2F)[nH]c(C(N)=O)c1S(=O)(=O)c1cc(Cl)cc(Cl)c1 [Example 35, N-(4-chloro-2-fluorobenzyl)-N,3-dimethyl-4-(3,5-dichlorophenylsulfonyl)-1H-pyrrole-2,5-dicarboxamide]
IC50 [1, 3]: < 8 µM | IC50 (HIV-1 RT enzyme): < 5 µM

CC(C)c1c(C(=O)N(C)Cc2ccccc2F)[nH]c(C(N)=O)c1S(=O)(=O)c1ccccc1 [Example 61, N-(2-fluorobenzyl)-3-isopropyl-N-methyl-4-(phenylsulfonyl)-1H-pyrrole-2,5-dicarboxamide]
IC50 [1, 2]: < 8 µM | IC50 (HIV-1 RT enzyme; read-out: IC50): < 5 µM

CC(C)c1c(C(=O)N(C)Cc2ccnc(N)c2F)[nH]c(C(N)=O)c1S(=O)(=O)c1ccccc1 [Example 115, N2-[(2-amino-3-fluoropyridin-4-yl)methyl]-3-isopropyl-N2-methyl-4-(phenylsulfonyl)-1H-pyrrole-2,5-dicarboxamide]
IC50 [1, 2]: < 8 µM | IC50 (HIV-1 RT enzyme; read-out: IC50): < 5 µM

CC(C)c1c(C(=O)N(C)Cc2ccc3ncccc3c2)[nH]c(C(N)=O)c1S(=O)(=O)c1ccccc1 [Example 64, 3-isopropyl-N-methyl-4-(phenylsulfonyl)-N-(6-quinolinylmethyl)-1H-pyrrole-2,5-dicarboxamide]
IC50 [1, 2]: < 8 µM | IC50 (HIV-1 RT enzyme; read-out: IC50): < 5 µM

COc1ccc2c(c1)CN(C(=O)c1[nH]c(C(N)=O)c(S(=O)(=O)c3cc(Cl)cc(Cl)c3)c1C)CCC2 [Example 81, 3-[(3,5-dichlorophenyl)sulfonyl]-4-methyl-5-(8-methoxy-1,3,4,5-tetrahydro-2H-2-benzazepin-2-ylcarbonyl)-1H-pyrrole-2-carboxamide]
IC50 [1, 2]: < 8 µM | IC50 (HIV-1 RT enzyme; read-out: IC50): < 5 µM

CC(C)c1c(C(=O)N(C)Cc2cc(Cl)ncc2F)[nH]c(C(N)=O)c1S(=O)(=O)c1ccccc1 [Example 114, N2-[(2-chloro-5-fluoropyridin-4-yl)methyl]-3-isopropyl-N2-methyl-4-(phenylsulfonyl)-1H-pyrrole-2,5-dicarboxamide]
IC50 [1, 2]: < 8 µM | IC50 (HIV-1 RT enzyme; read-out: IC50): < 5 µM

Cc1c(C(=O)N(C)Cc2ccccc2)[nH]c(C(N)=O)c1S(=O)(=O)c1cccc(C(F)(F)F)c1 [Example 22, N-benzyl-N,3-dimethyl-4-(3-trifluoromethylphenylsulfonyl)-1H-pyrrole-2,5-dicarboxamide]
IC50 [1, 2]: < 8 µM | IC50 (HIV-1 RT enzyme; read-out: IC50): < 5 µM

CC(C)c1c(C(=O)N(C)Cc2cc3cccnc3cc2Cl)[nH]c(C(N)=O)c1S(=O)(=O)c1ccccc1 [Example 70B, 3-isopropyl-N-methyl-4-(phenylsulfonyl)-N-[(7-chloroquinolin-6-yl)methyl]-1H-pyrrole-2,5-dicarboxamide]
IC50 [1, 3]: < 8 µM | IC50 (HIV-1 RT enzyme; read-out: IC50): < 5 µM

Cc1c(C(=O)N2CCCc3sc(Cl)cc3C2)[nH]c(C(N)=O)c1S(=O)(=O)c1cc(Cl)cc(Cl)c1 [Example 96, 3-[(3,5-Dichlorophenyl)sulfonyl]-4-methyl-5-[(2-chloro-4,6,7,8-tetrahydro-5H-thieno[3,2-c]azepin-5-yl)carbonyl]-1H-pyrrole-2-carboxamide]
IC50 [1, 2]: < 8 µM | IC50 (HIV-1 RT enzyme; read-out: IC50): < 5 µM

Cc1cc(C)cc(S(=O)(=O)c2c(C(N)=O)[nH]c(C(=O)N(C)Cc3cc(N)ncc3F)c2C)c1 [Example 103, N5-[(2-amino-5-fluoropyridin-4-yl)methyl]-3-[(3,5-dimethylphenyl)sulfonyl]-N5,4-dimethyl-1H-pyrrole-2,5-dicarboxamide]
IC50 [1, 2]: < 8 µM | IC50 (HIV-1 RT enzyme; read-out: IC50): < 5 µM

Cc1c(C(=O)N(C)Cc2ccccc2F)[nH]c(C(N)=O)c1S(=O)(=O)c1cccc(F)c1 [Example 16, N-(2-fluorobenzyl)-N,3-dimethyl-4-(3-fluorophenylsulfonyl)-1H-pyrrole-2,5-dicarboxamide]
IC50 [1, 2]: < 8 µM | IC50 (HIV-1 RT enzyme; read-out: IC50): < 5 µM

CC(C)c1c(C(=O)N(C)Cc2ccnc(N)c2)[nH]c(C(N)=O)c1S(=O)(=O)c1cccc(F)c1 [Example 99, N5-[(2-aminopyridin-4-yl)methyl]-3-[(3-fluorophenyl)sulfonyl]-4-isopropyl-N5-methyl-1H-pyrrole-2,5-dicarboxamide]
IC50 [1, 2]: < 8 µM | IC50 (HIV-1 RT enzyme; read-out: IC50): < 5 µM

Cc1c(C(=O)N2CCCc3ccc(O)cc3C2)[nH]c(C(N)=O)c1S(=O)(=O)c1cc(Cl)cc(Cl)c1 [Example 82, 3-[(3,5-dichlorophenyl)sulfonyl]-4-methyl-5-(8-hydroxy-1,3,4,5-tetrahydro-2H-2-benzazepin-2-ylcarbonyl)-1H-pyrrole-2-carboxamide]
IC50 [1, 2]: < 8 µM | IC50 (HIV-1 RT enzyme; read-out: IC50): < 5 µM

Cc1c(C(=O)N(C)Cc2cc3cccnc3cc2Cl)[nH]c(C(N)=O)c1S(=O)(=O)c1cc(F)cc(F)c1 [Example 50, N-[(7-chloro-6-quinolinyl)methyl]-4-[(3,5-difluorophenyl)sulfonyl]-N,3-dimethyl-1H-pyrrole-2,5-dicarboxamide]
IC50 [1, 2]: < 8 µM | IC50 (HIV-1 RT enzyme; read-out: IC50): < 5 µM

CC(C)c1c(C(=O)N(C)Cc2ccc3ncccc3c2Cl)[nH]c(C(N)=O)c1S(=O)(=O)c1ccccc1 [Example 70A, 3-isopropyl-N-methyl-4-(phenylsulfonyl)-N-[(5-chloroquinolin-6-yl)methyl]-1H-pyrrole-2,5-dicarboxamide]
IC50 [1, 3]: < 8 µM | IC50 (HIV-1 RT enzyme; read-out: IC50): < 5 µM

Cc1c(C(=O)N2CCCc3ccc(O)cc3C2)[nH]c(C(N)=O)c1S(=O)(=O)c1ccccc1 [Example 92, 3-(phenylsulfonyl)-4-methyl-5-(8-hydroxy-1,3,4,5-tetrahydro-2H-2-benzazepin-2-ylcarbonyl)-1H-pyrrole-2-carboxamide]
IC50 [1, 2]: < 8 µM | IC50 (HIV-1 RT enzyme; read-out: IC50): < 5 µM

Cc1c(C(=O)N(C)Cc2ccc3ncccc3c2Cl)[nH]c(C(N)=O)c1S(=O)(=O)c1ccccc1 [Example 42, N-[(5-Chloro-6-quinolinyl)methyl]-N,3-dimethyl-4-(phenylsulfonyl)-1H-pyrrole-2,5-dicarboxamide]
IC50 [1, 2]: < 8 µM | IC50 (HIV-1 RT enzyme; read-out: IC50): < 5 µM

Cc1c(C(=O)N2CCCc3cc(O)ccc3C2)[nH]c(C(N)=O)c1S(=O)(=O)c1cc(Cl)cc(Cl)c1 [Example 86, 3-[(3,5-dichlorophenyl)sulfonyl]-4-methyl-5-(7-hydroxy-1,3,4,5-tetrahydro-2H-2-benzazepin-2-ylcarbonyl)-1H-pyrrole-2-carboxamide]
IC50 [1, 2]: < 8 µM | IC50 (HIV-1 RT enzyme; read-out: IC50): < 5 µM

CC(C)c1c(C(=O)N(C)Cc2ccnc(Cl)c2F)[nH]c(C(N)=O)c1S(=O)(=O)c1ccccc1 [Example 108, N2-[(2-chloro-3-fluoropyridin-4-yl)methyl]-3-isopropyl-N2-methyl-4-(phenylsulfonyl)-1H-pyrrole-2,5-dicarboxamide]
IC50 [1, 2]: < 8 µM | IC50 (HIV-1 RT enzyme; read-out: IC50): < 5 µM

Cc1c(C(=O)N(C)Cc2ccc(Cl)cc2F)[nH]c(C(N)=O)c1S(=O)(=O)c1ccccc1 [Example 12, N-(4-chloro-2-fluorobenzyl)-N,3-dimethyl-4-(phenylsulfonyl)-1H-pyrrole-2,5-dicarboxamide]
IC50 [1, 3]: < 8 µM | IC50 (HIV-1 RT enzyme): < 5 µM

CCCc1c(C(=O)N(C)Cc2ccc3ncccc3c2)[nH]c(C(N)=O)c1S(=O)(=O)c1ccccc1 [Example 65, N-methyl-4-(phenylsulfonyl)-3-propyl-N-(6-quinolinylmethyl)-1H-pyrrole-2,5-dicarboxamide]
IC50 [1, 2]: < 8 µM | IC50 (HIV-1 RT enzyme; read-out: IC50): < 5 µM

Cc1cc(C)cc(S(=O)(=O)c2c(C(N)=O)[nH]c(C(=O)N(C)Cc3ccc4ncccc4c3Cl)c2C)c1 [Example 47, N-[(5-chloro-6-quinolinyl)methyl]-4-[(3,5-dimethylphenyl)sulfonyl]-N,3-dimethyl-1H-pyrrole-2,5-dicarboxamide]
IC50 [1, 2]: < 8 µM | IC50 (HIV-1 RT enzyme; read-out: IC50): < 5 µM

Cc1cc(C)cc(S(=O)(=O)c2c(C(N)=O)[nH]c(C(=O)N(C)Cc3ccnc(Cl)c3F)c2C)c1 [Example 107, N5-[(2-chloro-3-fluoropyridin-4-yl)methyl]-3-[(3,5-dimethylphenyl)sulfonyl]-N5,4-dimethyl-1H-pyrrole-2,5-dicarboxamide]
IC50 [1, 2]: < 8 µM | IC50 (HIV-1 RT enzyme; read-out: IC50): < 5 µM

Cc1c(C(=O)N2CCCc3ccccc3C2)[nH]c(C(N)=O)c1S(=O)(=O)c1ccccc1 [Example 78, 4-Methyl-3-(phenylsulfonyl)-5-(1,3,4,5-tetrahydro-2H-2-benzazepine-2-ylcarbonyl)-1H-pyrrole-2-carboxamide]
IC50 [1, 2]: < 8 µM | IC50 (HIV-1 RT enzyme; read-out: IC50): < 5 µM

COc1ccc2c(c1)CN(C(=O)c1[nH]c(C(N)=O)c(S(=O)(=O)c3cccc(C(F)(F)F)c3)c1C)CCC2 [Example 95, 3-[(3-(1,1,1-trifluoromethyl)phenyl)sulfonyl]-4-methyl-5-(8-methoxy-1,3,4,5-tetrahydro-2H-2-benzazepin-2-ylcarbonyl)-1H-pyrrole-2-carboxamide]
IC50 [1, 2]: < 8 µM | IC50 (HIV-1 RT enzyme; read-out: IC50): < 5 µM
